Experiment: general procedure: Fmoc solid-phase peptide synthesis; Wang resin (Fmoc-Gly-Wang resin, substitution 0.40 to 0.75 mmol/g); DIC/Oxymapure (DMAP for resin loading)
Details: whole synthesis, analytical HPLC, scale of the general procedure 10-gram Fmoc-Gly-Wang resin

Liraglutide
final HPLC purity: 99.5%
